First the molecules themselves.
T1: human TIM-3 ECD (antigen protein of the antibody affinity test) (human) (UniProt Q8TDQ0)
T1 sequence: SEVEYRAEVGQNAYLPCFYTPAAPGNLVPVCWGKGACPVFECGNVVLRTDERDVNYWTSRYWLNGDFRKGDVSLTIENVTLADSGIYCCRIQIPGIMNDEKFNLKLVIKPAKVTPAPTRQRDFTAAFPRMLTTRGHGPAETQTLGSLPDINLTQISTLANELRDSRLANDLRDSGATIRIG

B1: 7A4F10 fully human TIM-3 antibody (human IgG4, kappa) (antibody, V domains shown)
VH: EVQLLESGGGLVQPGGSLRLSCAASGFTFRTHLISWVRQAPGKGLEWVAAITGSGGSTYYADSVKGRFIISRDNSKNTLFLQMNSLRAEDTAVYYCAKDGGSGSYDDFWGQGTLVTVSS
VL: ETVLTQSPVTLSLSPGERATLSCRASQSVGSYLAWYQQKPGQAPRLLIYDASNRATGIPARFSGSGSGTDFTLTISSLEPEDFAVYYCQQRSNWPPTFGQGTKVEIK
B2: 18D2H2 fully human TIM-3 antibody (human IgG4, kappa) (antibody, V domains shown)
VH: EVQLVESGGDLVQPGGSLRLSCAASGFTFSTYWMTWVRQAPGRGLEWVANIKQDGSAKYYVDSVKGRFTLSRDDAKNSLYLQMNSLRAEDTAVYYCARGSNWFDYWGQGTLVTVSS
VL: ETVMTQSPATLSVSPGERATLSCRANQNVYSNLAWYQQKPGQAPRLLIYDASTRATGFPARFSGSGSGTEFTLTISSLQSEDFAVYYCQQYNNWPLTFGGGTKVEIK
B3: 57F4E5 fully human TIM-3 antibody (human IgG4, kappa) (antibody, V domains shown)
VH: EVQLVESGGGLVQPGGSLRLSCAASGFTFSSYWMSWVRQAPGKGLEWVANIKQDGSEKYYVDSVKGRFTISRDSAKNSLYLQMNSLRAEDTAMYFCARDSNFFDYWGQGTLVTVSS
VL: B2 VL with N26S, N28S, Y30S, Q38R, D50F, A51S, F58I
B4: 34B6D8 fully human TIM-3 antibody (human IgG4, kappa) (antibody, V domains shown)
VH: B2 VH with D10G, R43K, G44R, D54G, S56G, A57D, L70I, R72T, D74N, Y105P
VL: EIVMTQSPATLSMSPGERATLSCRASQSVYDNLAWYQQKPGQAPRLLIYGASTRATGIPARFSGSGSGTEFTLTISSLQSEDFALYYCQQYTHWPITFGQGTRLEIK
B5: 39E5H1 fully human TIM-3 antibody (human IgG4, kappa) (antibody, V domains shown)
VH: EVQLVESGGGLVQPGGSLRLSCAASGFTFSSYWMSWVRQAPGKGLEWVANIKRGGSERYYVDSVKGRFTISGDNAKNSVYLQMNSLRAEDTAVYYCARGSNWFDPWGQGTLVTVSS
VL: B4 VL with I2T, T10I, M13V, D31S, P40L, G50D, L85V, T92N, H93N
B6: 134H3G6 fully human TIM-3 antibody (human IgG4, kappa) (antibody, V domains shown)
VH: EVQLVESGGGLVQPGGSLRLSCAASGFTFSNSWMTWVRQAPGKGLEWVANIKQAGTEKYYVDSVKGRFTISRDNAKNSLYLQMNSLRAEDTAVYYCNSGSNYFDYWGQGTLVTVSS
VL: B2 VL with T2I, N26R, V29F, D50G, F58I

Numbering of substitutions follows the chain as printed. Results are given in words; binding and its absence hold for the method and conditions named. Some binding calls cover weakened binding; strength is not graded here.

For the experiment, the target named is T1, human TIM-3 ECD (antigen protein of the antibody affinity test) (human). Kind of experiment: BLI, antibody on AHC sensor, antigen in solution. On the technique in general: In BLI a coated tip is dipped into the sample, and binding shifts an interference pattern.
As to B1, the binding entry is “binds”.

With B2, the binding result is given as “binds”.

For B3, the binding entry was “binds”.

On to B4, for which the binding entry is reported as “binds”.

With B5, the binding entry is on record as “binds”.

Turning to B6, the binding entry is reported as “binds”.

The values are drawn from patent publication US20220033501A1.
